Results deposited as PubChem BioAssay AID1259405 (NCATS, 2018).
Assay: 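Silenced genes that increase secreted GFP made by CHO cells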 (primary screen). Cell system: Chinese hamster CHO-K1 ovary cells with stable secreted eGFP expression. Reagents: single siRNA against mouse genes, 0.8 pmol siRNA per well (2 µl of 400 nM stock). Time to read-out: 3 days. Measurement: 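Per-well intracellular GFP measured by laser scanning cytometry, plus viability from ATP luminescence, each relative to plate median of non-targeting control wells, in %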. Direction: GFP, % of control: higher = more GFP per well, higher productivity; viability (ATP), % of control: higher = more viable cells (more ATP). Rule for the call: 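a knock-down is called active if GFP reaches 120% or more of non-targeting control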.
The deposit covers about 50,000 reagents; this is a random part of them. About 4,000 of them (8%) were called active. 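Mouse siRNA library applied to hamster cells; one well for each siRNA.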 Entries without a mark were called inactive. The numbers tell different reagents against one gene apart. No sequences are given here.

| gene | reagent | GFP, % of control | viability (ATP), % of control |
| --- | --- | --- | --- |
| Enc1 (GeneID 13803) | 1 | 62.7 | 67.7 |
| Enc1 (GeneID 13803) | 2 | 121 (active) | 126 |
| 9330132A10Rik (GeneID 319609) | 1 | 82.2 | 68.5 |
| 9330132A10Rik (GeneID 319609) | 2 | 71.8 | 65.6 |
| 9330132A10Rik (GeneID 319609) | 3 | 89.8 | 97.9 |
| H2bc8 (GeneID 319181) | 1 | 42.1 | 56.5 |
| H2bc8 (GeneID 319181) | 2 | 86.2 | 93.3 |
| H2bc8 (GeneID 319181) | 3 | 89.1 | 80.9 |
| Bcl2l2 (GeneID 12050) | 1 | 57 | 74.5 |
| Bcl2l2 (GeneID 12050) | 2 | 106 | 95.3 |
| Smco1 (GeneID 69576) | 1 | 43.6 | 63.1 |
| Smco1 (GeneID 69576) | 2 | 97.1 | 63.9 |
| Smco1 (GeneID 69576) | 3 | 101 | 65.4 |
| Rims2 (GeneID 116838) | 1 | 88.9 | 87.4 |
| Rims2 (GeneID 116838) | 2 | 88 | 76.3 |
| Rims2 (GeneID 116838) | 3 | 57.1 | 55.7 |
| Selenow (GeneID 20364) | 1 | 71.5 | 101 |
| Selenow (GeneID 20364) | 2 | 43.8 | 56.2 |
| Selenow (GeneID 20364) | 3 | 46.6 | 52.7 |
| Ibsp (GeneID 15891) | 1 | 118 | 97.3 |
| Ibsp (GeneID 15891) | 2 | 93.9 | 80.5 |
| Abcb8 (GeneID 74610) | 1 | 70.2 | 62.9 |
| Abcb8 (GeneID 74610) | 2 | 64.8 | 87.2 |
| Abcb8 (GeneID 74610) | 3 | 56.3 | 24.8 |
| Serpinh1 (GeneID 12406) | 1 | 63.9 | 108 |
| Serpinh1 (GeneID 12406) | 2 | 88.5 | 114 |
| Serpinh1 (GeneID 12406) | 3 | 77.7 | 85.8 |
| Il19 (GeneID 329244) | 1 | 47.8 | 48.1 |
| Il19 (GeneID 329244) | 2 | 81.1 | 87.7 |
| Il19 (GeneID 329244) | 3 | 47.8 | 75.3 |
| Svep1 (GeneID 64817) | 1 | 112 | 65.1 |
| Svep1 (GeneID 64817) | 2 | 75.2 | 36.9 |
| Svep1 (GeneID 64817) | 3 | 74.6 | 60.8 |
| Tubb5 (GeneID 22154) | 1 | 72.7 | 73.1 |
| Tubb5 (GeneID 22154) | 2 | 60.4 | 49.9 |
